Patent US20060116407A1, “Amide derivatives” (priority 2004, published 2006)
Some of these results come from one statement about several compounds together. For at least one compound, name, drawing or mass did not settle the structure.

These compounds were tested on HEK293 cells (assay: Viability assay of HEK293 cells (CellTiter-Glo)). Settings: 7 days, 3 μM to 0.00015 μM, luminescence.
Assay type: cell-based, human
Protocol: Viability Assay of HEK293 Cells
A viability assay was performed using the CellTiter-Glo™ Luminescent Cell Viability Assay (see Promega Corporation's Technical Publication No. 288, pp. 1-11 [revised 2.04] which is hereby incorporated by reference in its entirety). This assay is a homogeneous method of determining the number of viable cells in culture based on quantitation of the ATP present, which signals the presence of metabolically active cells. The assay is designed for use with multiwell formats, making it ideal for automated high-throughput screening (HTS), cell proliferation and cytotoxicity assays. The homogeneous assay procedure involves adding a single reagent (containing luciferase, luciferan substrate, and buffer) directly to cells cultured in serum-supplemented medium. Cell washing, removal of medium and multiple pipetting steps are not required. The system detects as few as 15 cells/well in a 384-well format in 10 minutes after adding reagent and mixing.
The homogeneous “add-mix-measure” format results in cell lysis and generation of a luminescent signal proportional to the amount of ATP present. The amount of ATP is directly proportional to the number of cells present in culture. The above-referenced assay generates a “glow-type” luminescent signal, produced by the luciferase reaction, which has a half-life generally greater than five hours, depending on cell type and medium used. The extended half-life eliminates the need to use reagent injectors and provides flexibility for continuous or batch mode processing of multiple plates. The unique homogeneous format avoids errors that may be introduced by other ATP measurement methods that require multiple steps. […]

Structure (SMILES) | IC50
O=C(Nc1ccc(OC(F)(F)F)cc1)c1coc(COc2ccc(CCCCn3ccnn3)cc2)n1 [Example 10, 2-[4-(4-[1,2,3]Triazol-1-yl-butyl)-phenoxymethyl]-oxazole-4-carboxylic acid (4-trifluoro-methoxy-phenyl)-amide] | 5 to 500 nM
O=C(Nc1ccc(SC(F)(F)F)cc1)c1coc(COc2ccc(CCCCn3ccnn3)cc2)n1 [Example 11, 2-[4-(4-[1,2,3]Triazol-1-yl-butyl)-phenoxymethyl]-oxazole-4-carboxylic acid (4-trifluoro-methylsulfanyl-phenyl)-amide] | 5 to 500 nM
O=C(Nc1nc(COc2ccc(CCCCn3ccnn3)cc2)cs1)c1ccc2c(c1)OC(F)(F)O2 [Example 52-11, 2,2-Difluoro-benzo[1,3]dioxole-5-carboxylic acid{4-[4-(4-[1,2,3]triazol-1-yl-butyl)-phenoxymethyl]-thiazol-2-yl}-amide] | 5 to 500 nM
